Measurements as given in patent WO2019045086A1.

By UniProt entry, the sequences of proteins in these tests, tags left out. Where a name states a change or a piece, a line headed by the entry shows the natural chain unless it says otherwise.
UniProt P01137: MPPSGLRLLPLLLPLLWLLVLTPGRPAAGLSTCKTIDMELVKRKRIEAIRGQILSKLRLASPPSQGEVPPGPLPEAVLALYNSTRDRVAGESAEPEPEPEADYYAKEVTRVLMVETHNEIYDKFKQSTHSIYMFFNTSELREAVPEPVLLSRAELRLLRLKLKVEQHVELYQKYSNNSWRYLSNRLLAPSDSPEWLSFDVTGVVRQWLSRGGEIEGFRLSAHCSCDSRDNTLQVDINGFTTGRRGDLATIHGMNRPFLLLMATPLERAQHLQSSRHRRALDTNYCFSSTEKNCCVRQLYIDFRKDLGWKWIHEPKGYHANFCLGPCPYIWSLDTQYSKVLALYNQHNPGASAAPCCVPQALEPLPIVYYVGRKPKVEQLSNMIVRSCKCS

Legend:
[1] = molecular target: TGF-β1 (human) (UniProt P01137); assay: fluorescent immunoassay on HepG2 cells
[2] = molecular target: TGF-β1 (human) (UniProt P01137); assay: Western blot of lysates of cells or tissue overexpressing TGF-β1
[3] = molecular target: active TGF-β1 (human) (UniProt P01137); assay: immunostaining of colon cancer tissue sections
[4] = molecular target: TGF-β1 (human) (UniProt P01137); assay: immunostaining of colon cancer tissue sections

| Binder | binding [1] | binding [2] | binding [3] | binding [4] |
| --- | --- | --- | --- | --- |
| mouse anti-active TGF-β1 antibody clone 2H4 (antibody, V domains shown) VH: EVKLQQSGTVLARPGTSVKMSCKASGYTFSNYWMHWVKQRPGQGLEWIGAIYPGNSDTRFNQKFKGKAKLTAVTSASTAYMDLSSLTDEDSAVYYCTGYSNYEAGAMDYWGQGTSVTVSS VL: DIVMTQSPSSLAVSSGEKVTMSCKSSQSLLNSRTRKNYLAWYQQKPGQSPKLLIYWASTRESGVPDRFTGSGSGTDFTLTISGVQAEDLAVYYCQQSYHLPTFGGGTKLEIKR | binds | binds | binds | – |
| mouse anti-active TGF-β1 antibody clone 4D10 (antibody, V domains shown) VH: EVKLQQSGTVLARPGTSVKMSCKASGYTFSNYWMHWVKQRPGQGLEWIGAIYPGNSDTRFNQKFKGKAKLTAVTSASTAYMDLSSLTDEDSAVYYCTGYSNYEAGAMDYWGQGTSVTVSS VL: DIVMTQSPSSRAVSSGEKVTMSCKSSQSLLNSRTRKNYLAWYQQKPGQSLKLLIYWASTRESGVPDRFTGSGSGTDFTLTISGVQAEDLAVYYCQQSYHLPTFGGGTKLEIKR | binds | binds | binds | – |
| mouse anti-latent TGF-β1 antibody clone 2F10 (antibody, V domains shown) VH: EVQLQQSGPELVKPGASVKISCKASGYTFTDYYMNWVRQSHGKSLEWIGDIIPNSGGTSYNQKFKGKATLTVDMSSSTAYMELRSLTSEDSAVYYCTTEAMDYWGQGTSVTVSS VL: DIVLTQSPATLSVTPGDSVSLSCRASQSIRNKLHWYQQKSHESPRLLIKYASQSISRIPSRFSGSGSGTDFTLSINSVETEDFGMYFCLQSNSWPLTFGSGTKLEIKR | – | – | – | binds |

No constants are given. Whether binding was seen depends on the method and setting. A result given as binding can be weak or reduced; the word gives no strength.
